Measured values: the supplement of paper PMC11006884
What follows is the remainder of the data, with few or none of the targets with a hit. This is a noisy data set. This is a selection; strong and weak results do not stand in their true shares.

Chains of the proteins cited; added tags and fusions are not shown. Lines headed by an entry give the natural chain unless they say otherwise; changes in a name come on top.
UniProt O76071: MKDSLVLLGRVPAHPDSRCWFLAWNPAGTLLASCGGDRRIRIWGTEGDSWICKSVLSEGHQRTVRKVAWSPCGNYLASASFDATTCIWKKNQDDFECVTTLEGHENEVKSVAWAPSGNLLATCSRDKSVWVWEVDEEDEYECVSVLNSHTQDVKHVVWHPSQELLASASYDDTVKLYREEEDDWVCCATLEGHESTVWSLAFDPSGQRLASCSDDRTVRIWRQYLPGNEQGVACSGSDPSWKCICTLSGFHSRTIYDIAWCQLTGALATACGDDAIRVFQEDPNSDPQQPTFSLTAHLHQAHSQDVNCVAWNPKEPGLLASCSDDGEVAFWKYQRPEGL
UniProt O76003: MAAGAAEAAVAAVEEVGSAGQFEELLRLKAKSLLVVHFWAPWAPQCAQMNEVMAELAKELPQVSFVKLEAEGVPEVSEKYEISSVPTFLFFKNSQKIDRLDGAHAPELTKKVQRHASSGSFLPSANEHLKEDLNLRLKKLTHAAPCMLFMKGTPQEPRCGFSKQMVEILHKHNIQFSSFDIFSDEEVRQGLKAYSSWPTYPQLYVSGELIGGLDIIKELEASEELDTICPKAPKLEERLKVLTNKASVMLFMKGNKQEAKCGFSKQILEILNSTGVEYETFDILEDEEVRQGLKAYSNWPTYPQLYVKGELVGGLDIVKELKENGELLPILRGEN
UniProt O75935, whole entry, looked up: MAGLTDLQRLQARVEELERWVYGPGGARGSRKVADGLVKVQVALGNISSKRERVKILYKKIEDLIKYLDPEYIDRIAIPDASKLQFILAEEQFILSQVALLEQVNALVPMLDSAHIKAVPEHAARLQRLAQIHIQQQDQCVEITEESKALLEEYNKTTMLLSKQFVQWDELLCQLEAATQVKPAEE
UniProt O75351, whole entry: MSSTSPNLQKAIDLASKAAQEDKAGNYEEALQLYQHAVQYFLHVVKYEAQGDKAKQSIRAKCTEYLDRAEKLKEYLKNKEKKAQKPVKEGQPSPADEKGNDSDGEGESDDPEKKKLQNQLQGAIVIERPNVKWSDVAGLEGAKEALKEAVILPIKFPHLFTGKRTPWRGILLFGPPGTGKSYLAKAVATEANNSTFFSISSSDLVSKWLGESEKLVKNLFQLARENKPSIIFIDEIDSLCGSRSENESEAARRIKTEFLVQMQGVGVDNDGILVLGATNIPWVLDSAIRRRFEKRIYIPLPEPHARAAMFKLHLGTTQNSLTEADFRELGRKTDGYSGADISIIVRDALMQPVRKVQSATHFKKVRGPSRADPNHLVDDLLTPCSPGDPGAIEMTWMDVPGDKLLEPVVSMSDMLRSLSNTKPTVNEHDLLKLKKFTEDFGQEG
UniProt O75643, whole entry, looked up: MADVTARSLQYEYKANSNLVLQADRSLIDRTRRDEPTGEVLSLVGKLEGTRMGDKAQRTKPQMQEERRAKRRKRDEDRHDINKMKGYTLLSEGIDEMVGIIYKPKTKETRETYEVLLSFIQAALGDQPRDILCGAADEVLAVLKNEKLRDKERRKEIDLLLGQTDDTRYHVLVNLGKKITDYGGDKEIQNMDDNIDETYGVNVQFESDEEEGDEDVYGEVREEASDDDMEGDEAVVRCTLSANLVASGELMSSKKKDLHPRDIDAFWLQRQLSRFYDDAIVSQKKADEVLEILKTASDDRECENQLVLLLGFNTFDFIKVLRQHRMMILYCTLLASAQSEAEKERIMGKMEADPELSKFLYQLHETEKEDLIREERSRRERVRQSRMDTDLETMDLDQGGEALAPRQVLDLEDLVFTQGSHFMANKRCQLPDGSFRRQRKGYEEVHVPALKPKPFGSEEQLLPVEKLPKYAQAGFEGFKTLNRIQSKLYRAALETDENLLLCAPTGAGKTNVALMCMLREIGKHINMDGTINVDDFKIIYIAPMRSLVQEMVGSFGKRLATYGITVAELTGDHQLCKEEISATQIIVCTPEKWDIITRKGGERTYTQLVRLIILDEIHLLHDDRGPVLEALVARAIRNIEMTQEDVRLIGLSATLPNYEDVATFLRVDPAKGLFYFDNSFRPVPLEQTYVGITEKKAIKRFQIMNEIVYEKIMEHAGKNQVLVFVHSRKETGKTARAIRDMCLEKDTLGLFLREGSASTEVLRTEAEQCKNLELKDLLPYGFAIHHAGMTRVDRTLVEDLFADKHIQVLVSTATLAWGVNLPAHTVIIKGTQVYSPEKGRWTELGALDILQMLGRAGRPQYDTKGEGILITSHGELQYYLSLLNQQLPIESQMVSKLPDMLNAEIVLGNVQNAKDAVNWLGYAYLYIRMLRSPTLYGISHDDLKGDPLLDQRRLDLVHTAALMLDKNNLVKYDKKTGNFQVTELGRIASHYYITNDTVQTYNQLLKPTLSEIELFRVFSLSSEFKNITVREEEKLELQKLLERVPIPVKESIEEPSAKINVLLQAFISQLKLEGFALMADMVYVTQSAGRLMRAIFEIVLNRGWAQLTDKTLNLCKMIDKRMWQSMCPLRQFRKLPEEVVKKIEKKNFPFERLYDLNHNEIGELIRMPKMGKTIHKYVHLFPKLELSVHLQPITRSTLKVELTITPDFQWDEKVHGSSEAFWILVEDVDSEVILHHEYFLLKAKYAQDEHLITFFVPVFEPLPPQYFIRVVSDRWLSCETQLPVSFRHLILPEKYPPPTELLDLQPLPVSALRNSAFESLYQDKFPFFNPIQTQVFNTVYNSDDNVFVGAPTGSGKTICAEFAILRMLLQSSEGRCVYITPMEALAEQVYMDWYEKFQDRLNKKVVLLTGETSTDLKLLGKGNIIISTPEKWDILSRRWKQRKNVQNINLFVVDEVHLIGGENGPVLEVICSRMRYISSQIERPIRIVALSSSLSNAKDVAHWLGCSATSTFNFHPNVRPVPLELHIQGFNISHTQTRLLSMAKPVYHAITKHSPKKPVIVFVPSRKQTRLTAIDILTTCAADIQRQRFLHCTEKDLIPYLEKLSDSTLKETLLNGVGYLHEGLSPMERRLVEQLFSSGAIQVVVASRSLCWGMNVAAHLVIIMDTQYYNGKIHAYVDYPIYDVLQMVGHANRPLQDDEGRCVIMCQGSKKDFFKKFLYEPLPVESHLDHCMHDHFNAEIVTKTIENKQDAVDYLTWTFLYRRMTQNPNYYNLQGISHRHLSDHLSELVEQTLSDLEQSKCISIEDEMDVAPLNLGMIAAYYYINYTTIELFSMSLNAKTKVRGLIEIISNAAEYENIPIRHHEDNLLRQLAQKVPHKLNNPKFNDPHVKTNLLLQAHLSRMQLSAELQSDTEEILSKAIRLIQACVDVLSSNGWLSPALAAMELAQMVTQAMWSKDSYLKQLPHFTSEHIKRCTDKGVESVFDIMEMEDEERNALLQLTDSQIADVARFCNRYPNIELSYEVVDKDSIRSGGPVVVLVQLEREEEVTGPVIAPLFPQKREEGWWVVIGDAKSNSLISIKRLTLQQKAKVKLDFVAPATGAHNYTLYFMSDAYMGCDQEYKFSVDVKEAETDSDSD
UniProt O75976: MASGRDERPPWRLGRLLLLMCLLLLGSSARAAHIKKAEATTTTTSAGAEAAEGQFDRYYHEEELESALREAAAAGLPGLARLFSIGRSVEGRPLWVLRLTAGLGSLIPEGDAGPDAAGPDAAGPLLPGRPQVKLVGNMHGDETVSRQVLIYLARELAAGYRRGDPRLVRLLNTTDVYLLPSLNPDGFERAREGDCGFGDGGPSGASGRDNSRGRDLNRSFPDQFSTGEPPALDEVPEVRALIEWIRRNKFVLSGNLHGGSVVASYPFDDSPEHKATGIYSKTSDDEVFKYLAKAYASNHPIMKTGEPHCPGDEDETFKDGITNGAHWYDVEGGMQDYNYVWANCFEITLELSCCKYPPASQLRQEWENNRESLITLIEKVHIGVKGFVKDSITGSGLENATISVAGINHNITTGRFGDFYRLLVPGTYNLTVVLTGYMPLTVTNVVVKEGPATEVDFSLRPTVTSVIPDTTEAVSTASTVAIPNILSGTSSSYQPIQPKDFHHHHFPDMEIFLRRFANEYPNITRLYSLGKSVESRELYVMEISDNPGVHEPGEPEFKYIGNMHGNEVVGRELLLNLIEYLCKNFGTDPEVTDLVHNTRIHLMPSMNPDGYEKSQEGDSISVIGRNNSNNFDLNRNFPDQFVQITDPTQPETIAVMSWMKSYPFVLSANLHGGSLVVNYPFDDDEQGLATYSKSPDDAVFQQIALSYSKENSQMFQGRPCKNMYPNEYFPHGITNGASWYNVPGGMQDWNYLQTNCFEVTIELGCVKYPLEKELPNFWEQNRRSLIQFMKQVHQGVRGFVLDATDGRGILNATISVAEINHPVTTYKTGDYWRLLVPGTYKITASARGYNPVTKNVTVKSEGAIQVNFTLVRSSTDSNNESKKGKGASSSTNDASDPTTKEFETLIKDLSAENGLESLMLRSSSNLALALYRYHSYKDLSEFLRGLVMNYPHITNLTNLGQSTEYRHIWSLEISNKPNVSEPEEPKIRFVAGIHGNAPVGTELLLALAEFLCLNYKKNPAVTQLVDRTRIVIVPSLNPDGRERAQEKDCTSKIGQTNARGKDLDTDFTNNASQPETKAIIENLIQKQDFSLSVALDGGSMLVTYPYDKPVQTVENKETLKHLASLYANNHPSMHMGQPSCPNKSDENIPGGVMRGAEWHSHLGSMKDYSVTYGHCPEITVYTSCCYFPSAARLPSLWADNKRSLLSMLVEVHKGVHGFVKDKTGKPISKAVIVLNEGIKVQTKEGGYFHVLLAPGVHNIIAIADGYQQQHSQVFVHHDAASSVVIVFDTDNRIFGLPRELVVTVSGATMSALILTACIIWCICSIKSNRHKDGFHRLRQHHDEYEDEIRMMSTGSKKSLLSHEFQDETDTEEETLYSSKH
UniProt O75616: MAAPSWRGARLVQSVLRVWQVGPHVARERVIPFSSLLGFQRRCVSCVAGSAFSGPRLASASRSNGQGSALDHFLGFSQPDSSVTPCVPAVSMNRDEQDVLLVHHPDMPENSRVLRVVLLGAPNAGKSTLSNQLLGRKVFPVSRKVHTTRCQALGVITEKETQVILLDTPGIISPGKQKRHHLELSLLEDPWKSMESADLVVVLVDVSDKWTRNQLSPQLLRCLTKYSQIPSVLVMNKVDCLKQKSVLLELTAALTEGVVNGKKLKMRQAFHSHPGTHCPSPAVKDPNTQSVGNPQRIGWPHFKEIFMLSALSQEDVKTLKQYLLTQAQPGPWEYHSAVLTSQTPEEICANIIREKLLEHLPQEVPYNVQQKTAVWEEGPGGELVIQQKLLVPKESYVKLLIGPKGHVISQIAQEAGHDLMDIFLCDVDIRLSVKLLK
UniProt O75533, whole entry, looked up: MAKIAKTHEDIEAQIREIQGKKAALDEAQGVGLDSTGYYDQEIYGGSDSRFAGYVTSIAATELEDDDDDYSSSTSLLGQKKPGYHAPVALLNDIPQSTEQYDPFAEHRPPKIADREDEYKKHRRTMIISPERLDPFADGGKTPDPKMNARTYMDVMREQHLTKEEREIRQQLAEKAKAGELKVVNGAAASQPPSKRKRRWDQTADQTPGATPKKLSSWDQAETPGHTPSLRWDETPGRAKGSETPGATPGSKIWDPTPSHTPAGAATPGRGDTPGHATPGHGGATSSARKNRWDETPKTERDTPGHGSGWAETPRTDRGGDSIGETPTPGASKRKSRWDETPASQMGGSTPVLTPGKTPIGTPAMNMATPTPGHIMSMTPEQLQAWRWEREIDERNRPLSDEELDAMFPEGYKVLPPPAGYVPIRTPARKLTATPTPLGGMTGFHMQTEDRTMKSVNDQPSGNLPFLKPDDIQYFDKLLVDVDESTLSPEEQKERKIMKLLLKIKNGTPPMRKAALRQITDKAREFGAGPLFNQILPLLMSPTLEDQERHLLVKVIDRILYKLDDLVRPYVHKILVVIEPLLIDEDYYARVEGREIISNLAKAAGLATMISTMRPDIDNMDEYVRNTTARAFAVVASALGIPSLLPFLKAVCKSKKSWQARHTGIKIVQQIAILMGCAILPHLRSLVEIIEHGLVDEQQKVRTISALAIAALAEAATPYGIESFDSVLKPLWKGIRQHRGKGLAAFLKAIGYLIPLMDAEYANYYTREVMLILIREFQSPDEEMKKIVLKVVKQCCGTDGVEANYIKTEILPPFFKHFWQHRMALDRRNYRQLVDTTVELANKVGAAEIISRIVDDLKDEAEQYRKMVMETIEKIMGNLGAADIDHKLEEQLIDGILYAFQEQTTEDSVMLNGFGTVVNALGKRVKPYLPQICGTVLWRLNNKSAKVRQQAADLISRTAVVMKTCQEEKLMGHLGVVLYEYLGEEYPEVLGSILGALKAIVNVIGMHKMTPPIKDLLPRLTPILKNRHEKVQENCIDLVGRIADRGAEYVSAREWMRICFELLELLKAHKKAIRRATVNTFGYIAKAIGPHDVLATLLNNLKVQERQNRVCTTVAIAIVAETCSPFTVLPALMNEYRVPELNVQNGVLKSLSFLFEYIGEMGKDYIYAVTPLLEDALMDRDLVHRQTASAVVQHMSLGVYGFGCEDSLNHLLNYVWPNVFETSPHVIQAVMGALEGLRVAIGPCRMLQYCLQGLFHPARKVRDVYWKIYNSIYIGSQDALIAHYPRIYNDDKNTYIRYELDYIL

Compound: COC(=O)/C=C/c1ccccc1 [methyl cinnamate]
Assay: log2 ratio of iodoacetamide-alkyne labeling of the cysteine site, DMSO over compound (competition); higher = stronger covalent engagement of the cysteine by the compound, active = 1 or more
Conditions: 500 µM; treatment time 1 h; system: HEK293T cell lysate
How it was run: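 HEK293T lysate (2 mg/mL) was treated with DMSO or electrophile (500 µM, 1 h, ambient temperature), then iodoacetamide alkyne (1 h), clicked to sCIP-TMT reagents, pooled, trypsin-digested overnight at 37 °C, streptavidin-enriched and acid-eluted. Peptides were run on Orbitrap Eclipse LC-MS/MS with FAIMS and quantified in FragPipe. The log2 competition ratio per cysteine is mean control-channel over mean compound-channel reporter intensity. Duplicate channels and three replicates were used, and cysteines quantified in only one replicate were excluded.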

log2 ratio of iodoacetamide-alkyne labeling, inactive:
CIAO1 C234 (UniProt O76071) 0.148, PMPCB C419 (UniProt O75439) 0.162, ASNA1 C289 (UniProt O43681) 0.183, FOXO3 C31 (UniProt O43524) 0.0154, HTATSF1 C471 (UniProt O43719) 0.449, SYNCRIP C289 (UniProt O60506) 0.0303, ZC3H11A C209 (UniProt O75152) 0.435, EIF5B C853 (UniProt O60841) 0.252, GLRX3 C146 (UniProt O76003) -0.144, UniProt O75521_C312 0.24, PSIP1 C204 (UniProt O75475) 0.239, DCTN3 C173 (UniProt O75935) 0.155, VPS4B C240 (UniProt O75351) -0.00995, ZW10 C568 (UniProt O43264) 0.228, RECQL4 C511 (UniProt O94761) 0.229, ZW10 C588 (UniProt O43264) -0.0612, PSMD10 C107 (UniProt O75832) 0.229, NCOR1 C1274 (UniProt O75376) 0.164, KPNA6 C467 (UniProt O60684) 0.141, CSDE1 C506 (UniProt O75534) 0.371, FZD6 C702 (UniProt O60353) 0.226, XPOT C650 (UniProt O43592) 0.127, PRPF3 C37 (UniProt O43395) 0.0709, FLNB C2501 (UniProt O75369) 0.349, SNRNP200 C742 (UniProt O75643) 0.0125, ULK1 C426 (UniProt O75385) 0.161, DNAJC13 C2181 (UniProt O75165) 0.0385, PQBP1 C60 (UniProt O60828) 0.26, FLNB C2556 (UniProt O75369) -0.0432, CPD C582 (UniProt O75976) -0.0142, AP1G1 C353 (UniProt O43747) 0.547, ERAL1 C348 (UniProt O75616) 0.162, RSL1D1 C211 (UniProt O76021) 0.115, OBSL1 C581 (UniProt O75147) 0.387, SF3B1 C1250 (UniProt O75533) -0.144, AKAP8 C173 (UniProt O43823) 0.261, NME6 C163 (UniProt O75414) 0.153
